At least one structure is not confirmed: it was looked up by name or label, or the drawing left a doubt.
Test system: alkaline phosphatase (ALP)
Experiment: ALP expression staining in C2C12 cells
Format: cell-based, mouse
Details: C2C12, 2 days, 10 μM
Description: C2C12 cells were treated for 2 days with 10 μM DIPQUO or structural analogs, 1 ng/ml rhBMP4, or with inhibitors as noted in figure legends, and then fixed briefly in 70% acetone/10% formaldehyde/20% citrate. Staining was achieved using the leukocyte alkaline phosphatase kit (Sigma 86R-1KT) according to the manufacturer's instructions. Expression of ALP was confirmed and quantified by flow cytometric analysis, using an Accuri C6 flow cytometer. Briefly, control- or DIPQUO-treated C2C12 cells were detached and harvested on day 2 using PBS-based enzyme-free cell detachment solution (ThermoFisher). 2×10^5 cells were incubated on ice for 30 minutes with 10 μl APC-conjugated ALPL antibody (R&D Systems), and washed in ice-cold PBS before analysis. Live cells were gated and analyzed in CFlow Plus software and then data was converted to FlowJo to achieve publication-level resolution. […] After an additional 3 days, cells were either fixed and stained for ALP expression or analyzed for ALP activity using the AttoPhos Substrate kit. Hemagglutinin and FLAG epitope-tagged MKK3 (pMT2-HA-MKK3) and MKK6 (pcDNA3-FLAG-MKK6) constructs were obtained from Addgene and transfected into C2C12 cells using Lipofectamine LTX with Plus Reagent (ThermoFisher) according to manufacturer's instructions and cell extracts analyzed for protein expression and activity as described below.

## Oc1c2ccccc2c2c3c(cccc13)N=N2 [SP600125]
  ALP expression by staining: not adequate to induce a differentiation phenotype in C2C12 cells
